Amino acid sequences for entries named in this document (tags omitted).
UniProt Q9RWQ1, entry or part of it: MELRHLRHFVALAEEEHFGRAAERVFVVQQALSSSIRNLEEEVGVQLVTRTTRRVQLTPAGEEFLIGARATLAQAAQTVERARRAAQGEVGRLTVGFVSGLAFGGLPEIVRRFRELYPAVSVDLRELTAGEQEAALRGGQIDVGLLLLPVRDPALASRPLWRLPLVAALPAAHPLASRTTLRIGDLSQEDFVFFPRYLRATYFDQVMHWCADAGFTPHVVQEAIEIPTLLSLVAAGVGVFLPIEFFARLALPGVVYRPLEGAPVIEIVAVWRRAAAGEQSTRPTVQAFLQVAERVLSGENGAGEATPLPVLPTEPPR

According to publication PMC2225504:

Target: DrOxyR (oxidized or DTT-reduced) (Deinococcus radiodurans) (UniProt Q9RWQ1)
Assay: EMSA
Conditions: 10 mM Tris-Cl pH 8.0, 50 mM NaCl, 1 mM EDTA, 5% glycerol, 50 ug/mL BSA, 5 ug/mL calf thymus DNA, 0.05 pmol DNA, recombinant protein, residues 1-317, protein details: His-tag (pET28a, NdeI/BamHI), label: FITC, probe letters rebuilt from the primers and the genome, part of a longer molecule

| Sequence | binding result (oxidized) | binding result (reduced, 200 mM DTT) |
| --- | --- | --- |
| AGGCTGGGAGAACGGGAATCCATGGCCTTTATTTTAGGCGCGACTAAAATAGTTGTCCAACGGCGTGGGCTTGAGTTCGTCTTAAAGGCCGACTTTTTTGTGAAAAATGCCTCTTTCCCAAGATCCAGTCAGATTCCGTCACGCTGGGTCATCTGGTTTTCAGGGTGCTGTCACATATTTGCTAGAGGCTC (double strand) [dr1709 (mntH) upstream region] | binds | binds |
| CTGGGCGCAGCTTGAAGTTAGCGACCACCGACTGCTGTTTGCCCAAAGGTAAAGAAAATGGCTATGGGCGCCCCTCGCGGGCCCGGCGTAGGGTGCGTTCATGACGAAGAAAAGCACCAAGAGCGAGGCAGCCAGCAAGACCAAAAAGAGCGGCGTG (double strand) [dr2263 (dps) upstream region] | binds | binds |
| GCGCAGGATAGCGGATGCCCCGGCGCAGCGCGGTGTCCTGCTGCTCTGCCCCCCCCTGCGCCTTCTTCTTGAACCCACTGCACAGAACCCACTGGACAGAACCCACTGCACAGCCGCCGCGAGGGCCTGAGGGCCATGGAGACCGAGGGCCCTGGACATTGAGAATGATTCTCAATATGGTGCAGGGAGCTTCGGGCCTCTTGCCGCGCAGCAGAGCCAGCGAGGCGAAGGAGAGTGTATGAGCGACGAAAACAACAAGGGCGTCGG (double strand) [dr1998 (katE) upstream region] | binds | binds |
| GGGCGAGGGTCAGAAAAAGGGGCTGAAACTTCATGGCGCTGATATTGGAGTAATCCGACCAATTAAGTCAAGTTAAAAGTGGCCCTCGTTGTCCATGCATGACAACGGCGAATTTCTCAGTTTCAGTGGGTTTTCGCTCGCTCCCCTGCTTTTGAGTCGCTTTGAAAGGTCAAGCCGTCGTCTCATGACCGCGTGGCGCTTGCCGCGTCGATATGCTGTCGGCAGGATTTCTGACTTTATAGACACAGTGACCATCGGCACTGATACCCGGTCTGAACTTTTGTAATTGTCGCGGCTCCTGAACCCTCACCAGCTCCGCCGACCGCAGACTGAAGGGAAAGCCAGCAGC (double strand) [drB0125 upstream region] | binds | binds |

The exact form of at least one protein or probe is not confirmed.
